# Several values for one entry are separate records, joined by “and”; a condition that tells them apart may be missing. Equal entries are not always repeated. In all, about 410,000 compounds went through this assay and about 18,000 (4.4%) were called active. Inconclusive results, whose numbers are uncertain, are shown with a selection of clear calls. Rule as the data show it: active = activity change below about -60%; inconclusive = no clear call, values can overlap the other calls; inactive = above about -39%.
# Test: qHTS Assay for inhibitors of the human cytomegalovirus (HCMV)
# Conditions: HFF cells, HCMV-luciferase reporter, 72 h; at 57.5 µM; stronger effect = lower value
# Summary of the method: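 Luciferase read-out from HCMV-luciferase-infected HFFs (MOI 1 PFU/cell) 72 h post infection at 37C; compounds added after 16 h cell attachment; activity normalized between buffer-only basal and Salinomycin (10uM) inhibitor controls.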
# % is scaled to controls: 0 for no effect and ±100 for the full control effect.
row,SMILES,"activity change, negative = inhibition"
1,CCCCCCc1ccc(N2C[C@H](Cc3ccccc3)[C@@H](CC(=O)Nc3ccccc3)C2=O)cc1,inactive: 12.1%
2,Cc1nc(-c2nnc(SCC(=O)Nc3ccc(Cl)cc3)n2C)cs1,inconclusive: -44.8%
3,CCOC(=O)/C=C/C(=O)Nc1ccc(S(=O)(=O)Nc2c(C)cc(C)cc2C)cc1,inactive: -13.4%
4,Cc1ccccc1OCc1ccc(-c2nc(C#N)c(NCc3cccnc3)o2)o1,inconclusive: -47.7%
5,CC(C)Oc1ccccc1NC(=O)CSc1nc2ccccc2c(=O)n1C,inconclusive: -51.4%
6,Cc1c(N/C(=N/S(=O)(=O)c2ccccc2)c2ccc(Cl)cc2)c(=O)n(-c2ccccc2)n1C,inconclusive: -59.1%
7,CCCCC(O)(CCCC)C(=O)NN(C(=O)OC)c1ccccc1,inconclusive: -53%
8,COc1ccc(Nc2oc(-c3ccco3)nc2S(=O)(=O)c2ccc(F)cc2)cc1,inconclusive: -45.6%
9,COC(=O)[C@]1(CC(C)C)N[C@H](c2ccc(-c3cccc(Cl)c3)cc2)[C@@H]2C(=O)N(C)C(=O)[C@@H]21,inactive: 64.5%
10,O=C1COc2ccc(S(=O)(=O)CCC(=O)N3CCN(c4cccc(C(F)(F)F)c4)CC3)cc2N1,active: -67.9%
11,CCOc1ccccc1CNC(=O)c1cc2oc3ccccc3c2n1C,active: -84.9%
12,C[C@H](CO)N1C[C@H](C)[C@@H](CN(C)S(=O)(=O)c2cccs2)Oc2c(NC(=O)Cc3ccccc3)cccc2C1=O,inactive: -0.862%
13,COc1cc(NC(=O)c2cccc3c2C(=O)N(C2CCCCC2)C3)cc(OC)c1OC,active: -84.9% and active: -91.3%
14,CC1CCN(c2nc(N3CCCCC3)nc(N3CCCCC3)n2)CC1,inconclusive: -52.2%
15,Fc1ccc([C@@H]2CCNC[C@H]2COc2ccc3c(c2)OCO3)cc1,inconclusive: -59.1%
16,C=CCNCCCCOc1ccc(OCc2ccccc2)cc1,active: -68.7%
17,ClCc1ncc(-c2ccc(Cl)cc2)o1,inconclusive: -45.3%
18,Cc1cc(C)c(C)c(OCC(=O)NCC2CCCO2)c1 (stereo not drawn),inactive: 17.5%
19,Cc1ccc(NC(=O)c2oc3ccccc3c2NC(=O)C2CC2)cc1,inconclusive: -48.8%
20,Cn1cc(C(=O)N/N=C/c2ccc(Br)c([N+](=O)[O-])c2)c2ccccc21,inconclusive: -50%
21,Cc1ccccc1Br,inconclusive: -56.8%
22,Cc1cc(-c2csc(NC(=O)c3ccc(C#N)cc3)n2)c(C)n1Cc1ccccc1,inconclusive: -49.1%

row,SMILES,"activity change, negative = inhibition"
1,CCN=c1scc(C)n1/N=C/c1ccsc1,inactive: 139%
2,Cc1nc2c(C(=O)NCCCN(CC(C)C)CC(C)C)cnn2c(C)c1Cc1c(F)cccc1Cl,inconclusive: -59.6%
3,Cc1ccc(NS(=O)(=O)c2ccc(OCC(N)=O)cc2)cc1,inconclusive: -57.8%
4,Cc1ccc(NC(=O)c2cc(=O)c3ccccc3o2)c(C)c1,inactive: -32%
5,COc1ccc(OC)c(CNC(=O)c2ccc(Sc3ccc(C)cc3)c(N)c2)c1,inconclusive: -46.6%
6,Cc1ccc(CNC(=S)NC2CCC(C(C)(C)C)CC2)cc1 (stereo not drawn),inconclusive: -53.9%
7,Cc1cccc(CNC(=O)CCn2c(=O)c3cccn3c3ccc(F)cc32)c1,active: -85.2%
8,C=C[C@H]1CN2CCC1C[C@H]2[C@H](O)c1ccnc2ccc(OC)cc12 (stereo partly drawn),inconclusive: -45.9%
9,COCCNc1nc2nonc2nc1NC(C)c1ccccc1Cl (stereo not drawn),inconclusive: -46.1%
10,CC(C)(C)NC(=S)Nc1cccc(C(F)(F)F)c1,inconclusive: -54.2%
11,COc1ccc(CNc2ncnc3cc(OC)c(OC)cc23)cc1OC,inconclusive: -43.2%
12,CC1CCCC(C)N1C(=O)COC(=O)C12CC3CC(CC(Cl)(C3)C1)C2 (stereo not drawn),active: -62.6%
13,CNC1(C)[C@H]2CC[C@H](C2)C1(C)C (stereo partly drawn),inactive: 13.4%
14,C[C@H](O)[C@@H]1C(=O)N2CCc3ccc(-c4ccccc4)cc3[C@@H]2C[C@@H]1N(C)C(=O)c1ccc(C#N)cc1,inactive: -14.9%
15,CCCS(=O)(=O)NC(=O)C1(C)CCCN(C(=O)CCc2ccccc2)C1 (stereo not drawn),active: -65.1%
16,CCOC(=O)C1CCCN(C(=O)c2ccc(-c3ccc([N+](=O)[O-])cc3)o2)C1 (stereo not drawn),inactive: -11.3%
17,CC(C)CC(NC(N)=O)C(=O)Nc1cccc([N+](=O)[O-])c1 (stereo not drawn),inconclusive: -53.5%
18,COc1ccc(NC(=O)CSc2nc(-c3ccco3)cc(C(F)(F)F)n2)cc1OC,inconclusive: -45.3%
19,Cc1nc(N2CCN(C(=O)c3ccco3)CC2)c2c3c(sc2n1)CC(C)CC3 (stereo not drawn),inconclusive: -46.9%
20,CN(Cc1ccccc1)S(=O)(=O)c1nnc(NC(=O)c2cccc(Cl)c2)s1,inconclusive: -52.2%
21,CC(C)Sc1nnc(SCC(=O)NCCCN2CCCC2=O)s1,inconclusive: -45.3%
22,Cc1ccccc1NC(=O)CSc1nc2nccnc2c(=O)n1CCc1c[nH]c2ccccc12,inconclusive: -40.7%

row,SMILES,"activity change, negative = inhibition"
1,Cc1ccc(/C(N)=N/OC(=O)CCC2CCCC2)cc1,inconclusive: -42.5%
2,O=C(CCNC(=O)N1CCn2c1nc1ccccc12)NCc1ccccc1Cl,inconclusive: 0%
3,O=C(CSc1ncn[nH]1)NCCC(c1ccccc1)c1ccccc1,inactive: 14.5%
4,O=c1c2ccccc2[nH]c(=S)n1CCCN1CCC(Cc2ccccc2)CC1,inconclusive: -42.7%
5,N#CC1=C(N)Oc2n[nH]c(-c3cccnc3)c2C1c1ccc([N+](=O)[O-])o1 (stereo not drawn),inconclusive: -45.7%
6,COc1ccc(S(=O)(=O)c2cnc3ccc(Cl)cc3c2N2CCCCC2C)cc1 (stereo not drawn),inactive: -39.7%
7,FC(F)(F)c1cc(Cl)c2nc(-c3ccco3)c(Cc3ccccc3C(F)(F)F)n2c1,active: -66%
8,CC1CCCCN1C(=O)CSc1n[nH]c(-c2ccccc2Cl)n1 (stereo not drawn),inactive: 50.9%
9,c1ccc(CCCCc2ccccn2)cc1,inconclusive: -44.4%
10,Cc1cccn2c(=O)c(C(=O)NC3CCCCC3)c(O)nc12,inconclusive: -51.7%
11,Cc1ccc(C(=O)N2CCN(c3ccc(F)cc3)CC2)cc1S(=O)(=O)N1CCCCC1,active: -84.1%
12,COc1cc(Nc2nc(SCC(=O)c3ccc(Br)cc3)nc3ccccc23)cc(OC)c1,active: -62.3%
13,CCC(C)NCCOc1ccc(C)cc1[N+](=O)[O-] (stereo not drawn),inconclusive: -49.8%
14,O=C1NC(=NCc2ccccc2)S/C1=C\c1ccccc1,active: -67.8%
15,CS(=O)(=O)N(CC(O)Cn1c2ccccc2c2ccccc21)c1ccccc1 (stereo not drawn),inactive: 9.06%
16,O=C(Nc1ccc(Cl)c(Cl)c1)N1CCSC1c1ccco1 (stereo not drawn),inconclusive: -56.8%
17,O=C(CSc1n[nH]c(=O)n1Cc1ccco1)c1ccc(F)cc1,inconclusive: -54.2%
18,COc1ccc(OC)c(NC(=O)C2(C)CCN2C(C)C)c1 (stereo not drawn),inactive: -2.67%
19,CCCCCCn1c(SCC(=O)c2c(N)n(C)c(=O)n(C)c2=O)nc2ccccc21,inconclusive: -49%
20,S=C1NC2=C(CCC/C2=C\c2ccccc2)C(c2ccccc2)N1 (stereo not drawn),inconclusive: -47.9%
21,COc1ccc(N2CC(C(=O)Nc3nnc(SCC(=O)c4ccccc4)s3)CC2=O)cc1 (stereo not drawn),inconclusive: -50.8%
22,N#Cc1ccc(NC(=O)Cn2cnc(S(=O)(=O)N3CCCCC3)c2)cc1,inactive: -15.2%

row,SMILES,"activity change, negative = inhibition"
1,O=C(NCCN1CCNC1=O)C1CCC(=O)N(Cc2cccc(C(F)(F)F)c2)C1 (stereo not drawn),inconclusive: 0%
2,COC(=O)c1sc2nc(CN3CCOCC3)nc(N3CCOCC3)c2c1C,inactive: 1.07%
3,Cc1cccc(-c2cnn(-c3cccc([N+](=O)[O-])c3)c2N)c1,inconclusive: -55.7%
4,COc1ccc(/C=N/NC(=O)c2ccc(N3CCCC3=O)cc2)cc1,inactive: -21.6%
5,O=C(OCCN1CCCCC1)C1(c2ccccc2)CCCC1,inconclusive: -49.4%
6,CCOc1ccc2nc(NC(NC(=O)CC)(C(=O)OC)C(F)(F)F)sc2c1 (stereo not drawn),inactive: 0.573%
7,C=CCNC(=S)Nc1ccc2nsnc2c1,inconclusive: -52.9%
8,CN1CCN(Cc2nc3cc(NC(=O)COc4ccc([N+](=O)[O-])cc4)ccc3n2C)CC1,inactive: 18.6%
9,COc1ccc(S(=O)(=O)N2CCCCCC2)cc1NC(=O)Cc1ccccc1,inactive: 16.8%
10,Cc1ccc(OCC(=O)Nc2ccc(F)cc2)cc1,inactive: -9.78%
11,C=C(C(=O)c1ccccc1)C(c1ccccc1)C(C)C(=O)c1ccccc1 (stereo not drawn),active: -88.8%
12,Nc1c(C(=O)NCc2ccccc2)c2nc3ccccc3nc2n1-c1ccc2c(c1)OCO2,active: -77.1%
13,CC(=O)N1CCc2c(sc(NC(=O)CSc3ccccc3)c2-c2nc3ccccc3s2)C1,active: -97%
14,CN(C)C1=NCC(CSC(=N)N)S1 (stereo not drawn),inconclusive: -44.6%
15,CCOC(=O)CSc1nc(-c2ccc(C)cc2C)cc(-c2ccccc2)c1C#N,inconclusive: -45.8%
16,N#CCCCC#Cc1ccc2c(c1)COc1c3ccccc3nn1-2,inconclusive: -50.3%
17,CCc1c(C)c2ccc(O)c(CN3CCCC3)c2oc1=O,inactive: 35.2%
18,Cc1ccc(C)c(Nc2nn3c(=O)c4ccc(C(=O)NCc5cccnc5)cc4nc3s2)c1,inactive: 3.86%
19,c1ccc(CN2CCC(CNc3ncnc4ccccc34)C2)cc1 (stereo not drawn),inconclusive: -50.2%
20,CCCCCCn1c(NCC)nc2c1c(=O)n(C)c(=O)n2C,active: -88.5%
21,O=C(CN1CCN(c2ccc(O)cc2)CC1)Nc1ccc2c(c1)OCCCO2,inconclusive: -53.4%
22,Cc1ccc(NC(=O)C2C(c3ccccc3)C2(Cl)Cl)c(C)c1 (stereo not drawn),inconclusive: -50.1%

# From PubChem BioAssay AID1259415 (National Center for Advancing Translational Sciences (NCATS), 2018)
